Laboratory results: PubChem BioAssay AID1259308 (NCATS, 2017)

Purpose: 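Candidate targets for better recombinant protein yield in mammalian cells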 (primary screen)
Cell system: human HEK293 embryonic kidney cells stably expressing firefly luciferase (HEK-CMV-Luc2-Hygro)
Knock-down reagent: single siRNA against human genes, 0.8 pmol siRNA per well
Duration: 72 h
Read-out: 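Reporter luminescence and viable-cell signal on separate replicate plates, given as percent of non-targeting control and median/MAD z-scores, plus per-cell luciferase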
Direction: total luciferase, z-score and total luciferase, % of control: higher = more reporter protein produced
Hit rule: 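Active when the median/MAD z-score for overall luciferase is greater than 3; a gene was taken forward for validation with new siRNAs if at least two of its three siRNAs passed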
Calls: active = raised luciferase; inactive = no rise
Here is an unselected part of about 59,000 reagents tested. About 1,510 of them (2.6%) count as active. 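Calls use total luciferase alone and ignore viability, so some active siRNAs may act by altering cell number.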 The numbers tell different reagents against one gene apart. Further read-outs or replicates are left out here. No sequences are given here.

MOCOS (GeneID 55034) #1: total luciferase, z-score = -0.874; total luciferase, % of control = 64.5; outcome = inactive
MOCOS (GeneID 55034) #2: total luciferase, z-score = -0.506; total luciferase, % of control = 71.8; outcome = inactive
MOCOS (GeneID 55034) #3: total luciferase, z-score = -1.29; total luciferase, % of control = 56.2; outcome = inactive
METTL2A (GeneID 339175) #1: total luciferase, z-score = -0.975; total luciferase, % of control = 62.5; outcome = inactive
METTL2A (GeneID 339175) #2: total luciferase, z-score = -0.467; total luciferase, % of control = 72.6; outcome = inactive
METTL2A (GeneID 339175) #3: total luciferase, z-score = -0.554; total luciferase, % of control = 70.9; outcome = inactive
CDC37P1 (GeneID 390688) #1: total luciferase, z-score = 0.275; total luciferase, % of control = 87.4; outcome = inactive
CDC37P1 (GeneID 390688) #2: total luciferase, z-score = -1.57; total luciferase, % of control = 50.7; outcome = inactive
CDC37P1 (GeneID 390688) #3: total luciferase, z-score = 3.01; total luciferase, % of control = 142; outcome = active
DRD1 (GeneID 1812) #1: total luciferase, z-score = -0.269; total luciferase, % of control = 76.5; outcome = inactive
DRD1 (GeneID 1812) #2: total luciferase, z-score = 0.27; total luciferase, % of control = 87.2; outcome = inactive
DRD1 (GeneID 1812) #3: total luciferase, z-score = 0; total luciferase, % of control = 81.9; outcome = inactive

3 of these entries, set out differently:
METTL2A (GeneID 339175) #3
- total luciferase, z-score: -0.554
- total luciferase, % of control: 70.9
- outcome: inactive

CDC37P1 (GeneID 390688) #1
- total luciferase, z-score: 0.275
- total luciferase, % of control: 87.4
- outcome: inactive

CDC37P1 (GeneID 390688) #2
- total luciferase, z-score: -1.57
- total luciferase, % of control: 50.7
- outcome: inactive

Continued:
SLC5A8 (GeneID 160728) #1: total luciferase, z-score = -0.0612; total luciferase, % of control = 80.7; outcome = inactive
SLC5A8 (GeneID 160728) #2: total luciferase, z-score = 0.655; total luciferase, % of control = 94.9; outcome = inactive
SLC5A8 (GeneID 160728) #3: total luciferase, z-score = -2.03; total luciferase, % of control = 41.5; outcome = inactive
PPP1R12B (GeneID 4660) #1: total luciferase, z-score = 2.81; total luciferase, % of control = 138; outcome = inactive
PPP1R12B (GeneID 4660) #2: total luciferase, z-score = -1.52; total luciferase, % of control = 51.6; outcome = inactive
PPP1R12B (GeneID 4660) #3: total luciferase, z-score = -1.14; total luciferase, % of control = 59.2; outcome = inactive
LOC727751 (GeneID 727751) #1: total luciferase, z-score = -0.782; total luciferase, % of control = 66.3; outcome = inactive
LOC727751 (GeneID 727751) #2: total luciferase, z-score = 0.362; total luciferase, % of control = 89.1; outcome = inactive
LOC727751 (GeneID 727751) #3: total luciferase, z-score = -0.431; total luciferase, % of control = 73.3; outcome = inactive
ZNF749 (GeneID 388567) #1: total luciferase, z-score = 0.505; total luciferase, % of control = 91.9; outcome = inactive
ZNF749 (GeneID 388567) #2: total luciferase, z-score = 0.317; total luciferase, % of control = 88.2; outcome = inactive
ZNF749 (GeneID 388567) #3: total luciferase, z-score = -0.68; total luciferase, % of control = 68.4; outcome = inactive
MBOAT7 (GeneID 79143) #1: total luciferase, z-score = -0.000806; total luciferase, % of control = 81.9; outcome = inactive
MBOAT7 (GeneID 79143) #2: total luciferase, z-score = 0.722; total luciferase, % of control = 96.3; outcome = inactive
MBOAT7 (GeneID 79143) #3: total luciferase, z-score = -0.248; total luciferase, % of control = 77; outcome = inactive
OR2H1 (GeneID 26716) #1: total luciferase, z-score = -0.039; total luciferase, % of control = 81.1; outcome = inactive
OR2H1 (GeneID 26716) #2: total luciferase, z-score = 0.136; total luciferase, % of control = 84.6; outcome = inactive
OR2H1 (GeneID 26716) #3: total luciferase, z-score = -0.386; total luciferase, % of control = 74.2; outcome = inactive
PRSS59P (GeneID 207147) #1: total luciferase, z-score = -1.12; total luciferase, % of control = 59.7; outcome = inactive
PRSS59P (GeneID 207147) #2: total luciferase, z-score = -0.047; total luciferase, % of control = 81; outcome = inactive
PRSS59P (GeneID 207147) #3: total luciferase, z-score = -0.352; total luciferase, % of control = 74.9; outcome = inactive
